According to publication PMC12581665:
Results are given in words; binding and its absence hold for the method and conditions named. Binding seen in cells or lysates may run through a third protein. Binding calls can cover weak binding; strength is not graded here.

Protein sequences, listed by entry. Tags and fused reporters are not part of them. Lines headed by an entry give the natural chain unless they say otherwise; changes in a name come on top.
UniProt Q9BUF7: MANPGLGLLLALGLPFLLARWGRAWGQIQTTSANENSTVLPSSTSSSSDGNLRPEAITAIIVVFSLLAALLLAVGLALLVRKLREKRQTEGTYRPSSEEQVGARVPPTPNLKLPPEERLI
UniProt P35240: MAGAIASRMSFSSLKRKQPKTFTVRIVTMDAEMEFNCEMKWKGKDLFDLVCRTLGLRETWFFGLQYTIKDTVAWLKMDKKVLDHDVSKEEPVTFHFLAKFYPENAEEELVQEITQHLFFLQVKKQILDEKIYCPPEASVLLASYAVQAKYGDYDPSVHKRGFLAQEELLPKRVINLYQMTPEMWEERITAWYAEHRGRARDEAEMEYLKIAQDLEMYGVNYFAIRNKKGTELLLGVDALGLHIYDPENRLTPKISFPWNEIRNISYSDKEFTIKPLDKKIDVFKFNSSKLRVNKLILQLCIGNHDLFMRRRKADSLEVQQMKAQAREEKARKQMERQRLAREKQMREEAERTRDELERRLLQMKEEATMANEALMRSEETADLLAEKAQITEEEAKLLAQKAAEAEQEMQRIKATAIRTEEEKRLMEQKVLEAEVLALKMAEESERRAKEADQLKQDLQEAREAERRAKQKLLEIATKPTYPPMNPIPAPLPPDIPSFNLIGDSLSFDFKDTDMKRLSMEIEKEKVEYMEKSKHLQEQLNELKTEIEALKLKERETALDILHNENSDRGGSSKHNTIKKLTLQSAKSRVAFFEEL
UniProt Q8N3R9: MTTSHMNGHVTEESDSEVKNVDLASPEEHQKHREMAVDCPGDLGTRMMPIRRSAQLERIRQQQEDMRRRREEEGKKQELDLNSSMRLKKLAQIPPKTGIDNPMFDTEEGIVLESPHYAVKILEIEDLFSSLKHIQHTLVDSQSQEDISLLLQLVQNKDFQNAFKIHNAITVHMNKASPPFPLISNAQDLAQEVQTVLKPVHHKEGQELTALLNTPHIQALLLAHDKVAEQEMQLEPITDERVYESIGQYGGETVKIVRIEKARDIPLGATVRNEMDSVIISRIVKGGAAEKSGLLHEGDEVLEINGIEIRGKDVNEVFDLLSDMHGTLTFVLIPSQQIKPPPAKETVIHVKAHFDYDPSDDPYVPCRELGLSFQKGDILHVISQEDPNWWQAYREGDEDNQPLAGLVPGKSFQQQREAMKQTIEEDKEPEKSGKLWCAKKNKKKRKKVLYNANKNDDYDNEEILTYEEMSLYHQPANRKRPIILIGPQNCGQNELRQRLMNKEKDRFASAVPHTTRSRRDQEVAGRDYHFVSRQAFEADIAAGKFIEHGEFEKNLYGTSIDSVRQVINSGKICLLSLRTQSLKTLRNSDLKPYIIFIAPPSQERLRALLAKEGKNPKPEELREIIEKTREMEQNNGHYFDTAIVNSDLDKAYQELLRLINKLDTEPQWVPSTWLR

Columns and labels:
[1] = biological target: Myc-CRB3A mFBD (CRB3A mutant with 3 amino acid point mutations in the FERM-binding domain) (human) (UniProt Q9BUF7); assay: co-IP; anti-Myc immunoprecipitation from lysates of SKCO-15 cells transfected with Myc-Crb3 WT or mutants; relaxation lysis buffer (10 mM HEPES, 10 mM NaCl, 3.5 mM MgCl2, 100 mM KCl, 1% octyl glucoside); 5 ug/mL antibody or control IgG overnight at 4°C; protein G Dynabeads; Western blotting for NF2, Ezrin, PALS1 and Myc-tag
[2] = biological target: Myc-CRB3A ΔPBM (CRB3A mutant lacking the ERLI sequence) (human) (UniProt Q9BUF7); assay: as above

Substance | binding [1] | binding [2]
Merlin (NF2), endogenous (from UniProt P35240 1-595) | binds | binds
PALS1 (protein associated with Lin seven), endogenous (from UniProt Q8N3R9 1-675) | binds | 
